Assay results taken from patent US20030108512A1, “Modified prostaglandin compounds and analogs thereof, compositions containing the same useful for the treatment of cancer” (priority 2001, published 2003).
Some entries share one result that the patent states for a list of compounds. At least one structure is not confirmed: it was looked up by name or label, or the drawing left a doubt.

Assays:
LOX cells [1] = test: Apoptosis assay (Vybrant Apoptosis Assay Kit #4, YO-PRO); format: cell-based, human; conditions: overnight, n=4, FIGS. 9-11
Method: An apoptosis assay marketed as Vybrant Apoptosis Assay Kit #4 from Molecular Probes, Inc., was obtained for the test.
The LOX cell cultures were incubated overnight.
The apoptosis assay was performed four times (n=4) for each test compound.

LOX cells [2] = test: Live cell toxicity assay (LIVE/DEAD Viability/Cytotoxicity Kit, Calcein AM); conditions: overnight, n=4, FIGS. 5 and 8

Structure (SMILES) | dosages giving a marked increase in the incidence of apoptosis (LOX cells [1]) | dosages at which cell toxicity was exhibited (cell viability inhibited) (LOX cells [2]) | dosages causing LOX cells to enter apoptosis (LOX cells [1])
CNC(=O)[C@H](Cc1ccccc1)NC(=O)[C@H](CC(C)C)[C@H](CSc1cccs1)C(=O)NO [MMP inhibitor, BATIMASTAT®] | over 10 μM | over 10 μM | –
CCCCCC(O)CC[C@@H]1C2Cc3cccc(OCC(=O)O)c3CC2C[C@H]1O (stereo partly shown) [Compound V] | – | over 10 μM | over 10 μM
